PubChem BioAssay AID1671195 | Yale University – 2021
This is an unselected part of about 22,000 reagents tested. About 1,510 of them (6.9%) were called active. 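Active includes knockdowns raising or lowering LDL uptake; positive z-scores mean more uptake, negative mean less.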 Reagent sequences are not shown.

- Assay: 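Regulators of LDL receptor activity judged by labelled LDL uptake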 (primary screen)
- System: human Huh7 hepatoma cells
- Reagents: siRNA pool against human genes, 18 nM
- Time to read-out: about 2 to 2.5 days of knockdown, then 8 h LDL uptake
- Treatment: DiI-labelled LDL at 30 µg/ml for 8 h, in lipoprotein-deficient serum medium
- Measured: 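Per-cell DiI-LDL intensity by automated imaging; well means scaled to the plate median and given as a robust z-score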
- Direction: robust z-score: higher = more LDL uptake after knockdown
- Active means: 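a gene counts as active if at least two replicate z-scores exceed ±2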

For GDF7 (growth differentiation factor 7), how do the results read?
robust z-score, replicate 1: 0.49; robust z-score, replicate 2: 0.0356; robust z-score, replicate 3: -0.196; call: inactive

How did the screen score MORC4 (MORC family CW-type zinc finger 4)?
robust z-score, replicate 1: 1.36; robust z-score, replicate 2: 0.173; robust z-score, replicate 3: 0.68; call: inactive

Which result is listed for CYTH3 (cytohesin 3)?
robust z-score, replicate 1: -0.391; robust z-score, replicate 2: -0.425; robust z-score, replicate 3: -0.869; call: inactive

How did the screen score ENTHD1 (ENTH domain containing 1)?
robust z-score, replicate 1: -0.539; robust z-score, replicate 2: -0.946; robust z-score, replicate 3: 0.0753; call: inactive

With C20orf141 (chromosome 20 open reading frame 141), what does the deposit list?
robust z-score, replicate 1: -0.931; robust z-score, replicate 2: -0.976; robust z-score, replicate 3: -1.2; call: inactive

Which result is listed for OR10V1 (olfactory receptor family 10 subfamily V member 1)?
robust z-score, replicate 1: -0.288; robust z-score, replicate 2: -0.16; robust z-score, replicate 3: 0.0792; call: inactive

With PICK1 (protein interacting with PRKCA 1), what does the deposit list?
robust z-score, replicate 1: -0.758; robust z-score, replicate 2: -0.0158; robust z-score, replicate 3: -1.12; call: inactive

What did the screen give for EIF4G1 (eukaryotic translation initiation factor 4 gamma 1)?
robust z-score, replicate 1: -0.237; robust z-score, replicate 2: -0.378; robust z-score, replicate 3: 0.0175; call: inactive

What did the screen give for ZNF611 (zinc finger protein 611)?
robust z-score, replicate 1: -0.337; robust z-score, replicate 2: -0.0232; robust z-score, replicate 3: -0.0217; call: inactive

What is on record for LOC440604 (retired record)?
robust z-score, replicate 1: 0.925; robust z-score, replicate 2: 0.982; robust z-score, replicate 3: 1.05; call: inactive

With NLRP5 (NLR family pyrin domain containing 5), what does the deposit list?
robust z-score, replicate 1: -1.3; robust z-score, replicate 2: -1.83; robust z-score, replicate 3: -1.93; call: inactive

What is on record for SANBR (SANT and BTB domain regulator of CSR)?
robust z-score, replicate 1: 0.86; robust z-score, replicate 2: 0.483; robust z-score, replicate 3: 0.821; call: inactive

Which result is listed for TDRD10 (tudor domain containing 10)?
robust z-score, replicate 1: 1.26; robust z-score, replicate 2: 0.269; robust z-score, replicate 3: -0.528; call: inactive

What did the screen give for KLHL1 (kelch like family member 1)?
robust z-score, replicate 1: 0.92; robust z-score, replicate 2: 0.128; robust z-score, replicate 3: 0.245; call: inactive

Which result is listed for ITGB7 (integrin subunit beta 7)?
robust z-score, replicate 1: -0.803; robust z-score, replicate 2: -1.96; robust z-score, replicate 3: -1.81; call: inactive

For SLC6A7, what was measured?
robust z-score, replicate 1: 0.629; robust z-score, replicate 2: 0.51; robust z-score, replicate 3: 0.632; call: inactive

Records listed so far whose gene name begins with E or e:
ENTHD1 (ENTH domain containing 1) | robust z-score, replicate 1: -0.539; robust z-score, replicate 2: -0.946; robust z-score, replicate 3: 0.0753; call: inactive
EIF4G1 (eukaryotic translation initiation factor 4 gamma 1) | robust z-score, replicate 1: -0.237; robust z-score, replicate 2: -0.378; robust z-score, replicate 3: 0.0175; call: inactive
